Some results were stated once for a whole list of compounds, not compound by compound. At least one compound was matched to its structure with a doubt left.
What was measured:
[1] = system: ALOMY; assay: greenhouse test, pre-emergence treatment; assay type: in vivo; details: scale 0 to 100
[2] = system: APESV; assay: greenhouse test, pre-emergence treatment; assay type: in vivo, Apera spica-venti; details: scale 0 to 100
Protocol: (§1) The culture containers used were plastic flowerpots containing loamy sand with approximately 5.8% of humus as the substrate. The seeds of the test plants were sown separately for each species.
(§2) The containers were irrigated gently to promote germination and growth and subsequently covered with transparent plastic hoods until the plants had rooted.
(§3) Depending on the species, the plants were kept at 10-25° C. or 20-35° C. The test period extended over 1 to 4 weeks. During this time, the plants were tended, and their response to the individual treatments was evaluated.
(§4) Evaluation was carried out using a scale from 0 to 100. 100 means no emergence of the plants, or complete destruction of at least the aerial moieties, and 0 means no damage, or normal course of growth. A good herbicidal activity is given at values of at least 70 and a very good herbicidal activity is given at values of at least 85.

[3] = system: ECHCG; assay: greenhouse test, pre-emergence treatment; assay type: in vivo, Echinochloa crus-galli; details: scale 0 to 100
[4] = system: SETFA; assay: greenhouse test, pre-emergence treatment; assay type: in vivo, Setaria faberi; details: scale 0 to 100
Protocol: as §1, §2, §3, §4

[5] = system: AGSST; assay: greenhouse test, pre-emergence treatment; assay type: in vivo, Agrostis alba; details: 2.0 kg/ha, scale 0 to 100
[6] = system: POAAN; assay: greenhouse test, pre-emergence treatment; assay type: in vivo, Poa annua; details: 2.0 kg/ha, scale 0 to 100
[7] = system: AMARE; assay: greenhouse test, pre-emergence treatment; assay type: in vivo, Amaranthus retroflexus; details: 1.0 kg/ha, scale 0 to 100
[8] = system: SETVI; assay: greenhouse test, post-emergence treatment; assay type: in vivo, Setaria viridis; details: 0.5 kg/ha, scale 0 to 100

Structure (SMILES)	herbicidal activity ([3]; 0.5 kg/ha)	herbicidal activity ([4]; 0.5 kg/ha)	herbicidal activity [5]	herbicidal activity [6]	further results
CN1C(=O)C(C)(Cc2ccccc2)N(C)C(=O)C1=Cc1cccn1CCC#N (racemic) [I-28]	good (A good herbicidal activity is given at values of at least 70)	very good (a very good herbicidal activity is given at values of at least 85)			herbicidal activity ([1]; 0.5 kg/ha): good (A good herbicidal activity is given at values of at least 70); herbicidal activity ([2]; 0.5 kg/ha): very good (a very good herbicidal activity is given at values of at least 85)
CN1C(=O)C(C)(Cc2ccccc2)N(C)C(=O)C1=Cc1sc2ccccc2c1Br (racemic) [I-5]			very good (a very good herbicidal activity is given at values of at least 85)	very good (a very good herbicidal activity is given at values of at least 85)	
Cc1cc(C=C2C(=O)N(C)C(C)(Cc3ccccc3)C(=O)N2C)c(C(F)(F)F)o1 (racemic) [I-55]					herbicidal activity ([1]; 1.0 kg/ha): very good (a very good herbicidal activity is given at values of at least 85); herbicidal activity [7]: very good (a very good herbicidal activity is given at values of at least 85); herbicidal activity ([2]; 1.0 kg/ha): very good (a very good herbicidal activity is given at values of at least 85); herbicidal activity ([3]; 1.0 kg/ha): very good (a very good herbicidal activity is given at values of at least 85); herbicidal activity ([4]; 1.0 kg/ha): very good (a very good herbicidal activity is given at values of at least 85)
CN1C(=O)C(C)(Cc2ccccc2)N(C)C(=O)C1=Cc1occc1Br (racemic) [I-11]			very good (a very good herbicidal activity is given at values of at least 85)	very good (a very good herbicidal activity is given at values of at least 85)	
Cc1ncn(C)c1C=C1C(=O)N(C)C(C)(Cc2ccccc2)C(=O)N1C (racemic) [I-38]	good (A good herbicidal activity is given at values of at least 70)	very good (a very good herbicidal activity is given at values of at least 85)			herbicidal activity [8]: very good (a very good herbicidal activity is given at values of at least 85)
CN1C(=O)C(C)(Cc2ccccc2)N(C)C(=O)C1=Cc1occc1C#N (racemic) [I-12]			very good (a very good herbicidal activity is given at values of at least 85)	very good (a very good herbicidal activity is given at values of at least 85)	

Source: US20110207609A1, “Piperazine Compounds With Herbicidal Effect” (BASF SE, priority 2008, published 2011)
